{"source": "PubChem BioAssay AID686937 (Drosophila RNAi Screening Center, 2013)", "test": "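Genes whose loss weakens secretory pathway function in fly cells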 (primary screen)", "cell system": "Drosophila S2 cells expressing secreted horseradish peroxidase", "reagents": "long dsRNA against Drosophila genes", "timing": "about 5.5 days (5 days dsRNA, then 12 h reporter induction)", "treatment": "reporter expression induced after 5 days of dsRNA, read 12 h later; inducer not stated", "read-out": "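Chemiluminescent measurement of peroxidase in the medium 12 h after reporter induction, following 5 days of dsRNA, given as a z-score per plate; higher means more secretion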", "direction": "z-score: higher = more reporter secreted into medium", "note": "The deposit covers about 23,000 reagents; this is an unselected part of those with a known target gene and a result. 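Reduced-secretion tags in replicate 1 do not always agree with the z-scores; no criterion for assigning the tags was given.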 The numbers tell different reagents against one gene apart. A plus sign joins genes that one reagent is predicted to hit. Further read-outs or replicates are left out here. Reagent sequences are not shown. Not given: the amount of reagent."}
{"gene":"CG14153","reagent no.":1,"z-score, replicate 1":0.33}
{"gene":"CG14153","reagent no.":2,"z-score, replicate 1":-0.2}
{"gene":"tbrd-3","reagent no.":1,"z-score, replicate 1":-0.23}
{"gene":"L (retired record)","reagent no.":1,"z-score, replicate 1":-0.01}
{"gene":"L (retired record)","reagent no.":2,"z-score, replicate 1":-0.9}
{"gene":"CG34393","reagent no.":1,"z-score, replicate 1":0.56}
{"gene":"CG34393","reagent no.":2,"z-score, replicate 1":0.26}
{"gene":"Nup44A","reagent no.":1,"z-score, replicate 1":-0.49}
{"gene":"scpr-A + scpr-C","reagent no.":1,"z-score, replicate 1":0.33}
{"gene":"Mkp3","reagent no.":1,"z-score, replicate 1":0.42}
{"gene":"Mkp3","reagent no.":2,"z-score, replicate 1":0.43}
{"gene":"Taf8","reagent no.":1,"z-score, replicate 1":0.1}
{"gene":"CG34026","reagent no.":1,"z-score, replicate 1":0.05}
{"gene":"Nup188","reagent no.":1,"z-score, replicate 1":-0.13}
{"gene":"Sh","reagent no.":1,"z-score, replicate 1":-4.95,"phenotype, replicate 1":"reduced secretion"}
{"gene":"Sh","reagent no.":2,"z-score, replicate 1":0.3}
{"gene":"Sh","reagent no.":3,"z-score, replicate 1":0.39}
{"gene":"Sh","reagent no.":4,"z-score, replicate 1":0.15}
{"gene":"Sh","reagent no.":5,"z-score, replicate 1":0.32}
{"gene":"CG15452","reagent no.":1,"z-score, replicate 1":0.43}
{"gene":"Tsp42Ec","reagent no.":1,"z-score, replicate 1":0.3}
{"gene":"ArfGAP3","reagent no.":1,"z-score, replicate 1":0.23}
{"gene":"Crg-1","reagent no.":1,"z-score, replicate 1":-0.64}
{"gene":"CG4763","reagent no.":1,"z-score, replicate 1":-1.32}
{"gene":"CG4763","reagent no.":2,"z-score, replicate 1":0.09}
{"gene":"Art8","reagent no.":1,"z-score, replicate 1":-0.3}
{"gene":"CG42808","reagent no.":1,"z-score, replicate 1":-1.32}
{"gene":"Pkcdelta","reagent no.":1,"z-score, replicate 1":-0.14}
{"gene":"Pkcdelta","reagent no.":2,"z-score, replicate 1":0.1}
{"gene":"Sgs5","reagent no.":1,"z-score, replicate 1":-0.46}
{"gene":"Mfap1","reagent no.":1,"z-score, replicate 1":-0.07}
{"gene":"CG10660","reagent no.":1,"z-score, replicate 1":-2.45}
{"gene":"CG10098","reagent no.":1,"z-score, replicate 1":0.31}
{"gene":"CG17744","reagent no.":1,"z-score, replicate 1":0.33}
{"gene":"Pih1D1","reagent no.":1,"z-score, replicate 1":0.38}
{"gene":"Atpalpha","reagent no.":1,"z-score, replicate 1":0.13}
{"gene":"CG8509","reagent no.":1,"z-score, replicate 1":0.27}
{"gene":"EMC6","reagent no.":1,"z-score, replicate 1":-0.12}
{"gene":"Prx6c + CG12896 + Prx6b","reagent no.":1,"z-score, replicate 1":0.02}
{"gene":"Sp7","reagent no.":1,"z-score, replicate 1":0.07}
{"gene":"tra2","reagent no.":1,"z-score, replicate 1":0.21}
{"gene":"Rbp1-like","reagent no.":1,"z-score, replicate 1":0.36}
{"gene":"Rbp1-like","reagent no.":2,"z-score, replicate 1":0.72}
{"gene":"Rbp1-like","reagent no.":3,"z-score, replicate 1":-0.25}
{"gene":"isoQC","reagent no.":1,"z-score, replicate 1":0.07}
{"gene":"CG6125","reagent no.":1,"z-score, replicate 1":0.34}
{"gene":"CG30151","reagent no.":1,"z-score, replicate 1":-0.26}
{"gene":"CG5646","reagent no.":1,"z-score, replicate 1":0.4}
{"gene":"Dip-B","reagent no.":1,"z-score, replicate 1":-0.04}
{"gene":"Mitf","reagent no.":1,"z-score, replicate 1":0.31}
{"gene":"Mitf","reagent no.":2,"z-score, replicate 1":0.29}

A few values from the entries so far:
CG10098, z-score, replicate 1 = 0.31
Result of CG4763 #2 in “z-score, replicate 1”: 0.09
Result of Crg-1 under “z-score, replicate 1”: -0.64
Rbp1-like #1, z-score, replicate 1 → 0.36
